Test results: PubChem BioAssay AID2685 (National Center for Advancing Translational Sciences (NCATS), 2010)
The list shows a part of the results. These are further read-outs of the screen, such as a control signal, another cell line or another target. No call is given for them. Compounds called inactive in the main read-out are mostly missing here. Words in brackets tell the shape of the fitted curve; partial curves, single points and poor fits give uncertain potencies.

Assay: qHTS Assay for Lipid Storage Modulators in Drosophila S3 Cells;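 as to cell number change: cells counted by Cell Tracker Red CMTPX staining in the red channel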
Conditions: BODIPY lipid droplet fluorescence, 18-24 h; for cell number change: measured here: cell count max response, cells fed with added oleic acid
Outline: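 Drosophila S3 cells got compounds at several concentrations plus oleic acid (400 uM solution). Laser-scanning cytometry with 488 nm excitation read lipid droplets at 500-530 nm and cells at 575-640 nm. Percent activity was relative to 20 uM Triacsin C.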

[1] = measured here: lipid fluorescence (Fed channel) AC50, cells fed with added oleic acid
[2] = measured here: cell number channel AC50, cells fed with added oleic acid

CCN(CC)CC(=O)Nc1ccc(Oc2ccc(NC(=O)CN(CC)CC)cc2)cc1
cell number change: 37.3%
AC50 [1]: 0.146 µM [falling, full curve]

CCCn1c(SCC(=O)NCC)nc2sc3c(c2c1=O)CCC3
cell number change: 15.3%
AC50 [1]: 3.26 µM [rising, single point]

C=CCCC1(C)C(=O)N(c2ccccc2)c2ccccc21 (stereo not given)
cell number change: 37.7%
AC50 [2]: 29.1 µM [rising, single point]
AC50 [1]: 29.1 µM [rising, single point]

CC(C)(C)OC(=O)NC1CCN(S(=O)(=O)c2ccc3c(c2)OCCO3)CC1
cell number change: -16.1%

CCOC(=O)/C(C#N)=C\c1ccc(N2CCN(C)CC2)cc1
cell number change: -29.1%
AC50 [2]: 3.66 µM [falling, full curve, poor fit]
AC50 [1]: 29.1 µM [falling, single point]

O=C(Nc1nnc(SCc2ccc(F)cc2)s1)c1cnccn1
cell number change: 94.2%
AC50 [2]: 20.6 µM [rising, partial curve]
AC50 [1]: 20.6 µM [rising, partial curve]

O=C(Nc1nccs1)c1ccc(S(=O)(=O)NCc2cccs2)cc1
cell number change: -33.9%
AC50 [2]: 18.4 µM [falling, single point]
AC50 [1]: 4.11 µM [rising, single point]

CCc1n[nH]c2c1/C(=N\O)CC(C)(C)C2
cell number change: 0.407%

C/C(=N\OC(=O)c1cccc(C(F)(F)F)c1)c1sc(-c2ccccc2)nc1C
cell number change: -62.3%
AC50 [2]: 25.9 µM [falling, single point]

Cc1ccc(S(=O)(=O)N2CCC(C(=O)Nc3ccccc3N3CCCCC3)CC2)cc1
cell number change: -12.5%
AC50 [1]: 2.31 µM [rising, partial curve, poor fit]

Cc1nc(NCCc2ccccc2)c2nnn(Cc3ccccc3Cl)c2n1
cell number change: -28.3%
AC50 [1]: 6.51 µM [rising, single point]

CCCCN(C)Cc1c(C(=O)N2CCc3ccccc3C2)nc2ccc(Cl)cn12
cell number change: 12.4%
AC50 [2]: 2.59 µM [rising, partial curve, poor fit]
AC50 [1]: 0.13 µM [rising, full curve, poor fit]

CCN1CC2([N+](=O)[O-])C=CC(=O)C([N+](=O)[O-])(C1)C2CC(=O)c1ccccc1 (stereo not given)
cell number change: 18.7%
AC50 [1]: 29.1 µM [rising, single point]

COc1ccc(/C=C2\NC(=O)C(C=NCc3ccccc3)=C2O)cc1
cell number change: -42.1%
AC50 [2]: 29.1 µM [falling, single point]
AC50 [1]: 29.1 µM [falling, single point]

CCc1c(C)sc(NC(=O)c2cccs2)c1C(=O)OC(C)C
cell number change: -9.2%
AC50 [1]: 0.92 µM [rising, full curve, poor fit]

O=C(CN1C(=O)S/C(=C\c2cccs2)C1=O)Nc1ccc(O)c(C(=O)O)c1
cell number change: -11.3%
AC50 [1]: 29.1 µM [rising, single point]

O=C(Oc1ccccc1)c1ccc2c(c1)C(=O)N(Cc1ccncc1)C2=O
cell number change: -32.5%
AC50 [2]: 3.26 µM [falling, full curve, poor fit]
AC50 [1]: 5.8 µM [falling, partial curve]

O=C(O)c1ccccc1C(=O)N1N=C(c2ccccc2)CC1c1ccccc1O (stereo not given)
cell number change: 9.52%
AC50 [1]: 9.2 µM [rising, partial curve]

CCS(=O)(=O)c1ccc2oc(Nc3ccccc3Cl)nc2c1
cell number change: 26.9%

COc1cc(/C=C(\C#N)c2nc3ccccc3s2)ccc1OCC(=O)Nc1ccccc1
cell number change: 6.1%
AC50 [1]: 0.731 µM [rising, full curve, poor fit]

COc1ccccc1OCCCCN1CCN(C(c2ccccc2)c2ccccc2)CC1
cell number change: -36.1%
AC50 [2]: 29.1 µM [falling, single point]
AC50 [1]: 29.1 µM [falling, single point]

O=C(Nc1nccs1)c1ccc(Br)s1
AC50 [1]: 0.651 µM [falling, partial curve, poor fit]

CC(C(=O)Nc1ccccc1-c1ccccc1)N1CCCCC1 (stereo not given)
cell number change: 77.4%
AC50 [2]: 23.1 µM [rising, partial curve, poor fit]
AC50 [1]: 0.82 µM [rising, full curve]

O=[N+]([O-])c1cccc(NC(=S)N2CCN(S(=O)(=O)c3ccccc3)CC2)c1
cell number change: 0.867%
AC50 [1]: 29.1 µM [falling, single point]

COCc1[nH]nc2c1C(c1ccc(OC)cc1)C(C#N)=C(N)O2 (stereo not given)
cell number change: 71.1%
AC50 [2]: 29.1 µM [rising, single point]
AC50 [1]: 0.58 µM [falling, single point]

COc1ccc2c(c1)C(C)=CC(C)(C)N2C(=O)CSc1nnc(-c2ccc(C)cc2)o1
AC50 [2]: 2.91 µM [rising, partial curve]
AC50 [1]: 2.91 µM [rising, partial curve]

O=C(CCCCn1c(=O)[nH]c2ccccc2c1=O)N1CCN(c2cccc(C(F)(F)F)c2)CC1
cell number change: -22.2%
AC50 [1]: 14.6 µM [falling, partial curve]

O=C(O)CC/C(=N\Nc1ccc(S(=O)(=O)N2CCOCC2)cc1[N+](=O)[O-])c1cccs1
cell number change: 15.4%
AC50 [1]: 10.3 µM [rising, partial curve, poor fit]

O=C(CCCC(=O)NCC1CCCO1)NCC1CCCO1 (stereo not given)
cell number change: -1.16%

CCOc1ccc(C(=O)NCC(=O)OC2CCOC2=O)cc1OCC (stereo not given)
cell number change: -17.3%
AC50 [1]: 29.1 µM [falling, single point]

CNC(=O)CC12CC3CC(CC(C3)C1)C2
cell number change: -26.7%
AC50 [2]: 3.66 µM [falling, full curve, poor fit]
AC50 [1]: 0.731 µM [falling, full curve]

CNC(=O)/C(C#N)=C/c1ccc(OCCOc2ccccc2)cc1
cell number change: 7.02%
AC50 [1]: 29.1 µM [falling, partial curve, poor fit]

COc1ccccc1N1CCN(C(=S)Nc2ccc(F)cc2)CC1
AC50 [1]: 29.1 µM [rising, single point]

COc1ccccc1NC(=O)CN1CCN(CC(=O)Nc2ccc(F)cc2F)CC1
cell number change: 13.9%
AC50 [1]: 6.51 µM [falling, partial curve, poor fit]

COc1cc(C2CC(=O)N3CN(Cc4ccco4)CSC3=C2C#N)ccc1OCc1ccccc1 (stereo not given)
cell number change: 0.759%
AC50 [1]: 0.651 µM [falling, single point]

O=C(Cc1cccs1)N1CCCC(c2nc3c(nnn3Cc3ccccc3Cl)c(=O)[nH]2)C1 (stereo not given)
cell number change: -72.8%
AC50 [2]: 4.61 µM [falling, full curve]
AC50 [1]: 13 µM [falling, partial curve]

COc1cc(/C=C2/NC(=O)N(CC(=O)Nc3ccc(C)cc3)C2=O)ccc1Oc1ccc([N+](=O)[O-])cn1
cell number change: -11.8%
AC50 [1]: 32.6 µM [rising, single point]

Cc1ccc(N2CC(C(=O)Nc3nc4ccc(S(C)(=O)=O)cc4s3)CC2=O)cc1 (stereo not given)
cell number change: -17.3%
AC50 [1]: 0.58 µM [rising, single point]

CCN(Cc1ccccc1)Cc1ccc(OCc2ccccc2)cc1
cell number change: 1.62%

O=C(CSc1nnc(CNC(=O)c2ccco2)o1)Nc1ccc(F)cc1
cell number change: 21.2%
AC50 [1]: 29.1 µM [rising, single point]

COc1ccc(CNC(=O)C(C)N2CCN(c3ccc(C(C)=O)cc3)CC2)cc1 (stereo not given)
cell number change: 21.1%

Cc1nc2ccc(NC(=O)c3cnc(Cl)c(Cl)c3)cc2s1
cell number change: 9.68%
AC50 [1]: 29.1 µM [falling, single point]

O=C(c1ccc(-c2ccccc2Cl)o1)N1CCCC(C(F)(F)F)C1 (stereo not given)
cell number change: -10.1%

Cn1cccc1C(C#N)c1ncc(C(F)(F)F)cc1Cl (stereo not given)
cell number change: -29.5%

O=C(NCc1ccccc1)c1ccc(-c2ccccc2F)o1
cell number change: -38.9%
AC50 [2]: 32.6 µM [falling, single point]
AC50 [1]: 0.651 µM [falling, partial curve, poor fit]

CC(C)(O)C(=O)NN(C(=O)c1ccccc1)c1cccc(Br)c1
cell number change: -17.1%
AC50 [1]: 2.06 µM [falling, partial curve, poor fit]

CCCOc1ccc2oc(=O)c3c(c2c1)CCCN3C(=O)CN1CCN(C(=O)c2ccco2)CC1
cell number change: -53.4%
AC50 [2]: 8.2 µM [falling, partial curve]
AC50 [1]: 6.51 µM [falling, partial curve]

COc1ccc(OC)c(N(CC(=O)N2CCN(c3cc(Cl)ccc3C)CC2)S(C)(=O)=O)c1
AC50 [2]: 6.51 µM [rising, single point]
AC50 [1]: 6.51 µM [rising, single point]

COc1ccccc1C(=O)NCCC(=O)NC1=NCCS1
cell number change: -11.3%
AC50 [1]: 0.146 µM [rising, full curve]

CCS(=O)(=O)N1CCN(c2ccc([N+](=O)[O-])c(N3CCOCC3)c2)CC1
AC50 [1]: 0.411 µM [rising, full curve]

Cc1nn(C(C)(C)C)c(OC(=O)c2ccc3c(c2)OCO3)c1Sc1ccccc1
AC50 [1]: 2.91 µM [falling, partial curve]

Cn1c(=O)c([N+](=O)[O-])c(Cl)c2ccccc21
cell number change: -53.6%
AC50 [2]: 3.66 µM [falling, full curve]
AC50 [1]: 2.31 µM [falling, full curve]

C/C(=C\c1ccccc1F)C(=O)c1c(C)cc(C)[nH]c1=O
cell number change: 15.7%
AC50 [1]: 9.2 µM [rising, partial curve, poor fit]

Cc1csc(SCC(=O)NC(=O)C2CCCCC2)n1
cell number change: -50.8%
AC50 [2]: 0.259 µM [falling, full curve]
AC50 [1]: 0.517 µM [falling, full curve]

CCc1ccc(NC(=O)CN(c2ccccc2)S(=O)(=O)N(C)C)cc1
cell number change: -38.6%

CS(=O)(=O)N(CC(=O)Nc1c(F)cccc1F)c1cccc([N+](=O)[O-])c1
cell number change: -17.9%
AC50 [1]: 4.11 µM [falling, partial curve, poor fit]
